The campaign covered roughly 220,000 compounds. About 770 (0.35%) were called active. The shares of active, inactive and inconclusive entries below differ from those in the screen. Cut-off read from the data, not from the text of the source: active = binding response below about 49% or above about 150%; inconclusive = no clear call, values can overlap the other calls; inactive = in between.
target: Guanine nucleotide-binding protein G(o) subunit alpha (Homo sapiens) (UniProt P09471); experiment: RGS7-Galphao binding modulators, primary screen, biochemical, multiplexed bead flow cytometry (AID 1439); settings: at 10 µM, actives lie on both sides;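 note: fluorescent Galphao held in activated GDP-AlF4 state binding bead-coupled RGS7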

By UniProt entry, the sequences of proteins in these tests, tags left out.
UniProt P09471, whole entry, looked up: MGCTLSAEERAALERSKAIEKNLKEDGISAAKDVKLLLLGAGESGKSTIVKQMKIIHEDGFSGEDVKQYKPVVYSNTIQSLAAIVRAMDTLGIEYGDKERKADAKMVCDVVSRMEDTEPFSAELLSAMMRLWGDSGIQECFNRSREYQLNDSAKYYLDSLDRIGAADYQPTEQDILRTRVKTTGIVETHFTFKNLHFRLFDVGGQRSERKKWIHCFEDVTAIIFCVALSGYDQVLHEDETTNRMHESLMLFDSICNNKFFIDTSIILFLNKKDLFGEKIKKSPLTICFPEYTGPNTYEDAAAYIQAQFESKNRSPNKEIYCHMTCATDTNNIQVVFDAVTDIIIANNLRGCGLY

Compound	binding response (% of control)
O=C(CN1CC(c2ccccc2)CC1=O)N/N=C/c1cc(Br)ccc1O (stereo not given)	inactive: 75.3%
CC(C)Oc1cccc(C(=O)C2CCCN(Cc3cccn3-c3cccnc3)C2)c1 (stereo not given)	inconclusive: 308%
CC(C)CC(C(=O)Nc1ccccc1)N1C(=O)C2C3C=CC(C3)C2C1=O (stereo not given)	inactive: 97.9%
CC(C)N1CCN(Cc2cccn2-c2nccs2)CC1CCO (stereo not given)	active: 192% [activator]
Cn1c(=O)c2c(nc(OCCc3ccccc3)n2C)n(C)c1=O	inconclusive: 73%
Cc1c(-c2ccc(F)cc2)nc(N)c(C#N)c1-c1cccnc1	inconclusive: 42.3%
CCCCCCCCc1c(O)nc(-n2[nH]c(C)c(CCO)c2=O)[nH]c1=O	inconclusive: 85.1%
Cc1[nH][nH]c(=O)c1C=NCc1cccc(C(F)(F)F)c1	inconclusive: 65.5%
O=C(CSc1nc(O)cc(=O)n1-c1ccccc1)Nc1nc2ccccc2s1	inconclusive: 91.6%
O=[N+]([O-])c1ccccc1-c1ccc(C(=S)N2CCCCC2)o1	inconclusive: 111%
Cc1ccc(S(=O)(=O)[N-]c2nc3ccccc3nc2-[n+]2cc(C)cc(C)c2)cc1	inconclusive: 117%
COc1ccc(N2CCN(C(CNC(=O)C(C)(C)C)c3ccco3)CC2)cc1 (stereo not given)	inconclusive: 88.2%
CCOC(=O)C1=C(C)C(c2ccc(OC)cc2OC)NC(=O)N1 (stereo not given)	inactive: 95.2%
CC1CC(=O)Nc2ccccc2N1C(=O)CN1CCN(C=O)CC1 (stereo not given)	inconclusive: 94.3%
Cn1cc(S(=O)(=O)NCC2CCCO2)c(=O)n(C)c1=O (stereo not given)	inconclusive: 90.6%
Cc1ccc(OCc2nc(-c3cccs3)no2)c([N+](=O)[O-])c1	inactive: 104%
CCN(CC)CCn1c2ccccc2c2nc3ccc([N+](=O)[O-])cc3cc21	inconclusive: 88%
CC(C)Sc1n[nH]c(=O)n1-c1cccc(C(F)(F)F)c1	inconclusive: 138%
O=C(CCl)NC(=O)NC12CC3CC(CC(C3)C1)C2	active: 189% [activator]
Cc1c(Br)c(C(F)(F)F)nn1CC(=O)NCCCn1ccnc1	inactive: 99.6%
Cc1nc(C(=O)Nc2ccccc2)sc1C1(C)CC(c2cccc([N+](=O)[O-])c2)=NO1 (stereo not given)	inconclusive: 98.5%
Cc1ccc(-n2c3nc(=O)n(C)c(=O)c-3cc3ccccc32)cc1	inconclusive: 99.2%
FC(F)C(F)(F)c1cc(-c2ccccc2)n[nH]1	inconclusive: -371%

Compound	binding response (% of control)
CC(C)OC(=O)CSc1nc(Cc2cccs2)nc2ccccc12	inactive: 100%
Cc1cc(C(F)(F)F)n2nc(-c3cccs3)cc2n1	inconclusive: 133%
CCC(=O)Nc1cccc(C2=NOC3(C2)C[C@@H](C(N)=O)N(C(=O)c2cc([N+](=O)[O-])cc([N+](=O)[O-])c2)C3)c1 (stereo not given in full)	inconclusive: 114%
CCc1nnc(NC(=O)CCc2ccc(C)o2)s1	active: 158% [activator]
O=c1[nH]nc(N/N=C/c2ccc(Cl)cc2Cl)c(=O)[nH]1	inconclusive: 53.6%
COc1cc(/C=C2\CCOC2=O)cc(OC)c1OC	inconclusive: 142%
CCC(c1nnnn1Cc1ccc2c(c1)OCO2)N1CCN(CC)CC1 (stereo not given)	inconclusive: 98.7%
CCOc1ccc(C(=O)/C=C/c2ccc(SC)cc2)cc1	inactive: 100%
CN(C(=O)COc1ccc(Cl)cc1)c1nnc(C23CC4CC(CC(C4)C2)C3)s1	inactive: 97.3%
Nc1ccc(N2CCCCC2)c(S(=O)(=O)Nc2ccccc2Cl)c1	inconclusive: -117%
CN1CCCN(C(=O)c2cc(-c3ccc(Cl)c(Cl)c3Cl)nc3ccccc23)CC1	inconclusive: 86.7%
COc1ccc(OCC(=O)Nc2ccccc2OC(F)F)cc1	inactive: 102%
CC1CCN(c2ccc([N+](=O)[O-])c(SCCO)c2)CC1	inconclusive: 28.1%
Nc1nc(Nc2ccc(Cl)cc2)nc(NCc2ccco2)c1[N+](=O)[O-]	inconclusive: 150%
CCCCCCCCOC(=O)c1c(CSC(=N)N)n(C)c2cc(Br)c(OC(C)=O)cc12	inconclusive: 153%
O=C(/C=C/c1ccc(Br)o1)NCc1ccccc1	inactive: 84.5%
N#Cc1ccccc1S(=O)(=O)N1CCN(c2cnccn2)CC1	inactive: 96.8%
Nc1nc(-c2ccc(-n3nncc3-c3ccco3)cc2)cs1	inconclusive: 136%
CCOC(=O)Cc1csc(NC(=O)Cn2c(=O)oc3ccccc32)n1	inconclusive: 102%
CC(C)CN(C(=O)CN1CCc2ccccc21)c1c(N)n(CC(C)C)c(=O)[nH]c1=O	inconclusive: 96.4%
COc1ccc(C2/C=C\CN(C(=O)C3CCCC3)[C@H](Cc3ccccc3)C(=O)N2Cc2ccc(F)cc2)cc1 (stereo not given in full)	inconclusive: 109%
Cc1ccc(C)c(NS(=O)(=O)c2cc(C(=O)Nc3ccccc3-c3ccccc3)ccc2Cl)c1	inactive: 99.5%
CCn1nc(C)cc1C(=O)Sc1ccc(Cl)cc1Cl	inconclusive: 106%

Compound	binding response (% of control)
Cc1ccc(N2C(=O)N(CC(=O)NCc3ccccc3Cl)C(=O)C2C)cc1 (stereo not given)	inconclusive: 84%
O=C(N/N=C/C=C/c1ccc(Br)cc1)C(O)c1ccccc1 (stereo not given)	inactive: 103%
CCN(CC)S(=O)(=O)c1ccc(C(=O)/C=C/c2ccc(-c3ccc([N+](=O)[O-])cc3)o2)cc1	inconclusive: 69.1%
CN(C1CC(C)(C)NC(C)(C)C1)S(=O)(=O)CC12CCC(CC1=O)C2(C)C (stereo not given)	inconclusive: 89.2%
CCOC(=O)C(NC(C)=O)C(OC(C)=O)c1cccc(N(CCO)CCO)c1 (stereo not given)	inactive: 99.3%
CC(C)n1c(CN2CCN(Cc3ccccc3)CC2)nc2ccccc21	inconclusive: 71.8%
Cc1cc(=O)oc(C)c1C(=O)Nc1ccc(F)cc1	inconclusive: 117%
COC(=O)C1(Cc2ccccc2)NC(c2ccc(F)cc2)C2C(=O)N(C)C(=O)C21 (stereo not given)	active: 40.1%
CCC(CO)NCc1ccc(Br)cc1 (stereo not given)	inconclusive: 100%
NC1=NC(=O)CC(C(=O)Nc2cccc3ccccc23)S1 (stereo not given)	inactive: 109%
O=P(COCCOCCOCCOCP(=O)(c1ccccc1)c1ccccc1)(c1ccccc1)c1ccccc1	inconclusive: 93.7%
NS(=O)(=O)c1ccc(CNC(=O)c2cnccn2)cc1	inconclusive: 110%
NC1=NC[C@H](Cc2ccc(O)cc2)N1CCc1cc(C(F)(F)F)cc(C(F)(F)F)c1	inconclusive: 110%
CC(C)c1ccc(CN(C(=O)/C=C/c2ccco2)C2CCS(=O)(=O)C2)cc1 (stereo not given)	inconclusive: 106%
O=C(CCN1C(=O)c2cccc3cccc(c23)C1=O)NCC1CCCO1 (stereo not given)	inconclusive: 108%
N#C/C(=C\c1ccc(OCc2ccc(F)cc2)cc1)C(=O)Nc1cccc(C(=O)O)c1	inconclusive: 100%
COc1ccc(N2C(=O)CSC23C(=O)Nc2ccccc23)cc1 (stereo not given)	inactive: 101%
Nc1cc(Cl)ccc1N1C(=O)CCC1=O	inconclusive: 86.8%
COc1cc(NC(=O)c2cc(C)on2)cc(C(=O)Nc2cccc(C(F)(F)F)c2)c1	inconclusive: 106%
Cc1ccc(SCC(=O)NC2CC3CCC(C2)N3C)cc1 (stereo not given)	inconclusive: 95.5%
Cc1ccc(NCC(=O)N/N=C\c2ccc[nH]2)cc1	inconclusive: -31.4%
O=C(N/N=C1/CCS(=O)(=O)c2ccc(F)cc21)c1ccccn1	inconclusive: 114%
CN1CCN(NC(=O)c2cn(-c3ccccc3)nc2-c2ccc(OC(F)F)cc2)CC1	inconclusive: 115%

Compound	binding response (% of control)
CCOC(=O)c1nc(C)c(C(C)=O)s1	inconclusive: 101%
O=C(/C=C/c1cccc([N+](=O)[O-])c1)NCCN1C(=O)S/C(=C\c2cccnc2)C1=O	inconclusive: 89.8%
CCOCCCNC(=O)C(NC(=O)Cc1c[nH]c2ccccc12)c1ccccc1 (stereo not given)	inconclusive: 91.5%
CCOC(=O)Nc1nnc(Cc2ccc(Cl)c(Cl)c2)s1	inconclusive: 89.5%
COCCNc1nc(-c2cc(-c3ccccc3)on2)cc(C(C)C)n1	inconclusive: 98.7%
Cn1c(SCC(=O)c2ccccc2)nnc1C1COc2ccccc2O1 (stereo not given)	inconclusive: 94.2%
CCOc1c(S(=O)(=O)NC2CC(C)(C)NC(C)(C)C2)ccc(Cl)c1Cl	inconclusive: 100%
CCOC(=O)N/N=C/c1ccc(Oc2ccccc2)cc1	inconclusive: 124%
CN1C(C(=O)NCc2ccccc2)CC2Cn3c(nc4cc(Cl)c(Cl)cc43)C21 (stereo not given)	inconclusive: 71.3%
COCC(=O)N(Cc1cc2ccc(C)cc2[nH]c1=O)c1ccc(OC)cc1	inactive: 87.1%
CNc1ccn(C2CCCO2)c(=O)n1 (stereo not given)	inconclusive: 102%
Cc1cc2nc(=O)c(/C=C3\C=Nc4ccccc43)c(N)n2o1	inconclusive: 51.8%
COc1ccc(CNC(=O)c2cc3c(s2)CN(Cc2ccccc2)C3)cc1	inactive: 99.4%
CCCCN=Cc1c(C)[nH]n(-c2ccccc2)c1=S	inactive: 110%
CCOC(=O)c1oc2nc3c(cc2c1N)CCCC3	inconclusive: 103%
FC(F)(F)c1ccc(Cl)c(-n2c(-c3cc(-c4ccco4)[nH]n3)n[nH]c2=S)c1	inconclusive: 107%
CN(CC(=O)Nc1cccc(F)c1)CC(=O)Nc1cccc(S(N)(=O)=O)c1	inconclusive: 103%
COc1ccc(/C(N)=N/OC(=O)c2ccco2)cc1	inconclusive: 82.2%
Brc1cccc(OCCCN2CCCCCC2)c1	inconclusive: 107%
COC(=O)CSc1nnc(SCc2ccc(OC)cc2)s1	inactive: 104%
Cc1noc(NC(=O)c2c(-c3c(Cl)cccc3Cl)noc2C)c1[N+](=O)[O-]	inconclusive: 95.7%

Random excerpt: five records from the list
Compound	binding response (% of control)
COC(=O)C1(Cc2ccccc2)NC(c2ccc(F)cc2)C2C(=O)N(C)C(=O)C21 (stereo not given)	active: 40.1%
Cc1cc2nc(=O)c(/C=C3\C=Nc4ccccc43)c(N)n2o1	inconclusive: 51.8%
O=C(N/N=C/C=C/c1ccc(Br)cc1)C(O)c1ccccc1 (stereo not given)	inactive: 103%
CCOC(=O)c1nc(C)c(C(C)=O)s1	inconclusive: 101%
Nc1nc(Nc2ccc(Cl)cc2)nc(NCc2ccco2)c1[N+](=O)[O-]	inconclusive: 150%

Reformatted field by field: two of the compounds above
CN1C(C(=O)NCc2ccccc2)CC2Cn3c(nc4cc(Cl)c(Cl)cc43)C21 (stereo not given)
  binding response (% of control): inconclusive: 71.3%
COCC(=O)N(Cc1cc2ccc(C)cc2[nH]c1=O)c1ccc(OC)cc1
  binding response (% of control): inactive: 87.1%
